From paper PMC6153294
Results are given in words; binding and its absence hold for the method and conditions named. A result given as binding can be weak or reduced; the word gives no strength.

Amino acid sequences for entries named in this document (tags omitted). A change or cut given only in a name is not applied to a line headed by its entry. Residues count along the entry.
UniProt Q9NSA1, residues 29-209: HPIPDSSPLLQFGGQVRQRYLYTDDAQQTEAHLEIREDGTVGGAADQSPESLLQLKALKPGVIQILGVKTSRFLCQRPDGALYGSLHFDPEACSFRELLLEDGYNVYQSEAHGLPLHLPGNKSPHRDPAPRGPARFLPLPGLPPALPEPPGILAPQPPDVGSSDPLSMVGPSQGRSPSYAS
UniProt Q86Z14: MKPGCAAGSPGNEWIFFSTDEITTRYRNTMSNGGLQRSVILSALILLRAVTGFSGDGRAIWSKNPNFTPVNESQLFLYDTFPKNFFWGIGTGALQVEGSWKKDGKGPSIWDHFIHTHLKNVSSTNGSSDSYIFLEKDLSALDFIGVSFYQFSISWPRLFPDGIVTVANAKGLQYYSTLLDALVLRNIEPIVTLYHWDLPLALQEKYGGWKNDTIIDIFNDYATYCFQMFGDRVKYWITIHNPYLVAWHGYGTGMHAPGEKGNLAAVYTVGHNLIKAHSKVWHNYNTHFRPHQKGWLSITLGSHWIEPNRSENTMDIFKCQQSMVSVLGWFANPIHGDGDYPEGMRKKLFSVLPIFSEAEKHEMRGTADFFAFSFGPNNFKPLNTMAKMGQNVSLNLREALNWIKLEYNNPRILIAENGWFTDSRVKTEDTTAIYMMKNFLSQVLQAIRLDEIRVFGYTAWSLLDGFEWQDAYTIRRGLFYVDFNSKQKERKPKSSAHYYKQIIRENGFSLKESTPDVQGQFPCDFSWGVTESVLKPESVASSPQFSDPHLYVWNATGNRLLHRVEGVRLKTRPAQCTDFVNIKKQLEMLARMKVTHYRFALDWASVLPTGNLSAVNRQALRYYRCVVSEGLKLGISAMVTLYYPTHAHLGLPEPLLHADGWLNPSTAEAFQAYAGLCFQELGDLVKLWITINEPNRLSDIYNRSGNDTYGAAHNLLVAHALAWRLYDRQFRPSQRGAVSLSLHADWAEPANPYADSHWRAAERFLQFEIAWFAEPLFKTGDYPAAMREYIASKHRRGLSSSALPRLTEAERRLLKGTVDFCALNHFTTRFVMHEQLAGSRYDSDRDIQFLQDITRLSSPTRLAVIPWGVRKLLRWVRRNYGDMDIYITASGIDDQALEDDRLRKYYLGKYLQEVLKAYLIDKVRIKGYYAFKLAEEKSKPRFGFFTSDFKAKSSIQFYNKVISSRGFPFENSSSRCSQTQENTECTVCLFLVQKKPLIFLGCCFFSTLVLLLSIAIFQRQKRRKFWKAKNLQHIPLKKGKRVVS

Molecular target: Fibroblast growth factor 21 (UniProt Q9NSA1)
Assay: SPR; competition-binding assay on Biacore T200: 10 nM human β-Klotho incubated with 10 nM and 100 nM 39F7 or FGF21 in PBS, 0.1 mg/ml BSA, 0.005% Surfactant P20, 1 h at room temperature; free β-Klotho measured over amine immobilized FGF21; both purified

binding: binds
Substance: human β-Klotho (His-tagged recombinant protein of the Biacore assays) (from UniProt Q86Z14) (receptor)
